No constants are given. Whether binding was seen depends on the method and setting. Binding seen in cells or lysates may run through a third protein. Some entries that bind do so weakly or less than the wild type. For some assays here: Sequences can lack the tags named with a protein.
Assays:
[1] = target: RUNX1 (Runt-related transcription factor 1) (human (endogenous in U251, N9)) (UniProt Q01196); assay: co-IP; Fig. S9a: co-IP of RUNX1 with five partners taken from a STRING network, 'in vivo'; cells, bait and antibodies not shown; general method: Western and IP lysis buffer, antibody and protein-A/G PLUS agarose at 4 °C overnight, three washes with RIPA, western blot
Flag-SMAD3 = Flag-SMAD3 (UniProt P84022); assay: co-IP; Fig. 2b-e: U251 cells overexpressing Flag-RUNX1, Flag-SMAD3 or Flag-SUV39H1 with TGFβ protein for 4 h or 8 h; N9 cells overexpressing the same with LY2109761 for 24 h or 48 h; Western and IP lysis buffer, antibody and protein-A/G PLUS agarose at 4 °C overnight, three washes with RIPA, western blot
Flag-SUV39H1 = target: T1, Flag-SUV39H1 (UniProt O43463); assay: as above
T1 sequence: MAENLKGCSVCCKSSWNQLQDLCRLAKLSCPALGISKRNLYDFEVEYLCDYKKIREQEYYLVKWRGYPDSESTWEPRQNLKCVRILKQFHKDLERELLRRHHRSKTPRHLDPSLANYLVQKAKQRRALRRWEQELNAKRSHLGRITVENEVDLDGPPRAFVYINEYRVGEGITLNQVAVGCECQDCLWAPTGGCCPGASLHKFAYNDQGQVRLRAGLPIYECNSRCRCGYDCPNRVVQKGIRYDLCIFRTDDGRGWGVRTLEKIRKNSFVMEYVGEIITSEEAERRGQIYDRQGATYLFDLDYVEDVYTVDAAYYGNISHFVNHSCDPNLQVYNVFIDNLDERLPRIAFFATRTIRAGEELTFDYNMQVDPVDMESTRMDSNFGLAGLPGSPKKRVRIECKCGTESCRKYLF

Chains of the proteins cited; added tags and fusions are not shown.
UniProt P84022: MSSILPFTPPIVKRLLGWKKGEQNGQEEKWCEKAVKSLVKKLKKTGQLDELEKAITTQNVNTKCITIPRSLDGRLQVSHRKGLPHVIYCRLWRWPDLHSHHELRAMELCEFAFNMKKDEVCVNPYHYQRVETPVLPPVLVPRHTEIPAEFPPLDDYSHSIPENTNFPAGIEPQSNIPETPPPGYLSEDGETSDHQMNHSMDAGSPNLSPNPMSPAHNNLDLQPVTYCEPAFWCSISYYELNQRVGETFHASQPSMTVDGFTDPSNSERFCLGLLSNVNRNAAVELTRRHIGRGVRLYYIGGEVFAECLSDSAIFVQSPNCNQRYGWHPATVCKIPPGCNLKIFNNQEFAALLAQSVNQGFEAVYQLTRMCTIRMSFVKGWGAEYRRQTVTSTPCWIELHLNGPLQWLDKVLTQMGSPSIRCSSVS
UniProt Q13547: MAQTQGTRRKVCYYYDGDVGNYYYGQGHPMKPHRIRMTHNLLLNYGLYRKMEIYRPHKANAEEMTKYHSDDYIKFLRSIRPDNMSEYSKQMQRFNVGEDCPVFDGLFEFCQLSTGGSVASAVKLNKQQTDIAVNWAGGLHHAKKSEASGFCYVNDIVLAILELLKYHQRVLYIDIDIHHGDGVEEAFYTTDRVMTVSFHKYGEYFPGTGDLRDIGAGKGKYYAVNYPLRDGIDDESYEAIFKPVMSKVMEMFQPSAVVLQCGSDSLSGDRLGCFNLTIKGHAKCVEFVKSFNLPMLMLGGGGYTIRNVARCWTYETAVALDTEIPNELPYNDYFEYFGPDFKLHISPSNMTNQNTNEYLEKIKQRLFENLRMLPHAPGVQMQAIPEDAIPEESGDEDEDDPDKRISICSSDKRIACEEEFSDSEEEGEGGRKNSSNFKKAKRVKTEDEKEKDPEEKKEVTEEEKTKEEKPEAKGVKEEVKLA
UniProt Q13485: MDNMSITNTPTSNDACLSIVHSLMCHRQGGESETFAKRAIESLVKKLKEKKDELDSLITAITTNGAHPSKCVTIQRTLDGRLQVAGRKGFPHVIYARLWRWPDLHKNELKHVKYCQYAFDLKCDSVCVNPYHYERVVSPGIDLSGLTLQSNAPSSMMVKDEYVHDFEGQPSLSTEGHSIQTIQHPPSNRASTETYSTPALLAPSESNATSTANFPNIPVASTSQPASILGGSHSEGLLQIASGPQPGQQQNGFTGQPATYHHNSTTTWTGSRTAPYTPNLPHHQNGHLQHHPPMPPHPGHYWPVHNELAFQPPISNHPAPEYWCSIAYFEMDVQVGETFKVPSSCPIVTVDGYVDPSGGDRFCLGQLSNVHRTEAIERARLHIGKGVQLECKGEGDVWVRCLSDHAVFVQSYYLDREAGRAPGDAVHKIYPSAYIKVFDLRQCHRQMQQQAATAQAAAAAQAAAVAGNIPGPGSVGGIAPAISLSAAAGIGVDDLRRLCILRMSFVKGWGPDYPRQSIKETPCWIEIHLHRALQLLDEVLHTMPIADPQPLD

[2] = target: Flag-RUNX1 (Runt-Related Transcription Factor 1) (UniProt Q01196); assay: as above
[3] = target: T2, SUV39H1 (human (endogenous in U251, N9)) (UniProt O43463); assay: co-IP; Fig. S9d: co-IP of p-SMAD3 and SUV39H1; cells and bait not shown; general method: Western and IP lysis buffer, antibody and protein-A/G PLUS agarose at 4 °C overnight, three washes with RIPA, western blot
T2 sequence: T1 sequence

HDAC1 (from UniProt Q13547 1-482)
binding [1]: binds

RUNX1 (Runt-related transcription factor 1) (from UniProt Q01196 1-453)
binding (Flag-SMAD3): binds | binding (Flag-SUV39H1): binds

SMAD3 (from UniProt P84022 1-425)
binding [1]: binds | binding [2]: binds

SMAD4 (from UniProt Q13485 1-552)
binding [1]: binds

p-SMAD3 (phosphorylated SMAD3) (from UniProt P84022 1-425)
binding [3]: binds | binding [2]: binds
